PubChem BioAssay AID1053208 – Peter MacCallum Cancer Centre – 2014

Screen: 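Find knock-downs that sensitise mouse osteosarcoma cells to doxorubicin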 (primary screen)
Cells: mouse osteosarcoma cells, early-passage culture from an engineered mouse model of fibroblastic bone tumour
Reagents: siRNA pool against mouse genes, 40 nM
Duration: about 120 h (48 h before drug, then 72 h with drug)
Conditions: doxorubicin 100 nM for 72 h, roughly 30-40% inhibitory dose
Measurement: 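Luminescent ATP signal taken as viability with or without 100 nM doxorubicin for 72 h; mean of two wells set against non-targeting siRNA and turned into robust z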
Reading the numbers: viability z-score with doxorubicin: higher = more viable cells under doxorubicin; viability z-score without drug: higher = more viable cells with knock-down alone
Hit rule: 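Called active if knock-down leaves viability unchanged without drug (z within -2 to 2) but lowers it with doxorubicin (z at or under -2)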
Here is an unselected part of about 17,000 deposited reagents. Over the whole deposit, 788 (4.7%) are marked active. 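Calls rest on z-score classes alone; an extra cut-off of viability at most 70% of control was not applied to them.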 Unmarked entries are inactive. Reagents against one gene are numbered here. A reagent listed more than once was tested more than once; the source does not tell the runs apart. Not all columns of the deposit are shown.

| gene symbol | reagent | combined z-score class | viability z-score with doxorubicin | viability z-score without drug |
| --- | --- | --- | --- | --- |
| Zfp385c (zinc finger protein 385C) | 1 | no change with or without drug | 0.34 | 1.85 |
| Alpi (alkaline phosphatase, intestinal) | 1 | no change with or without drug | -1.8 | 1.18 |
| Rgs7bp (regulator of G-protein signalling 7 binding protein) | 1 | high cell count without drug only | -0.22 | 2.19 |
| Bco1 (beta-carotene oxygenase 1) | 1 | no change with or without drug | -0.67 | -0.51 |
| Pex14 (peroxisomal biogenesis factor 14) | 1 | no change with or without drug | 0.9 | 0.67 |
| Tecta (tectorin alpha) | 1 | no change with or without drug | -1.46 | -0.17 |
| Prkd1 (protein kinase D1) | 1 | no change with or without drug | 0.9 | 0.51 |
| Egln3 (egl-9 family hypoxia-inducible factor 3) | 1 | low cell count with doxorubicin only (active) | -3.37 | 1.01 |
| Cfhr1 (complement factor H-related 1) | 1 | low cell count with doxorubicin only (active) | -2.25 | -0.67 |
| Lrrc3 (leucine rich repeat containing 3) | 1 | no change with or without drug | -0.22 | -1.01 |
| Tmcc1 (transmembrane and coiled coil domains 1) | 1 | no change with or without drug | 0 | 1.18 |
| Ikbkb (inhibitor of kappaB kinase beta) | 1 | no change with or without drug | 1.91 | 0.34 |
| Cfap300 (cilia and flagella associated protein 300) | 1 | no change with or without drug | -0.22 | -0.84 |
| Drc11 (dynein regulatory complex subunit 11) | 1 | high cell count without drug only | -0.34 | 2.19 |
| Atg4b (autophagy related 4B, cysteine peptidase) | 1 | high cell count with doxorubicin only | 2.59 | 0.51 |
| Hs6st1 (heparan sulfate 6-O-sulfotransferase 1) | 1 | high cell count without drug only | 0.45 | 2.19 |
| Cenpc1 (centromere protein C1) | 1 | no change with or without drug | 0.22 | 0.84 |
| Agfg2 (ArfGAP with FG repeats 2) | 1 | no change with or without drug | 0.67 | 0.84 |
| Abhd17a (abhydrolase domain containing 17A) | 1 | no change with or without drug | 1.35 | -0.17 |
| Shmt2 (serine hydroxymethyltransferase 2 (mitochondrial)) | 1 | no change with or without drug | -0.34 | 0.17 |
| Or4f56 (olfactory receptor family 4 subfamily F member 56) | 1 | no change with or without drug | -1.35 | -0.84 |
| Slc22a17 | 1 | no change with or without drug | -1.12 | 0 |
| C130073F10Rik (RIKEN cDNA C130073F10 gene) | 1 | no change with or without drug | -0.45 | -1.01 |
| Or1a1 (olfactory receptor family 1 subfamily A member 1) | 1 | no change with or without drug | -0.67 | -0.34 |
| Or1a1 (olfactory receptor family 1 subfamily A member 1) | 1 | no change with or without drug | 0.67 | 0.84 |
| Ddx19b (DEAD box helicase 19b) | 1 | low cell count with doxorubicin only (active) | -2.25 | -0.84 |
| B3gnt5 | 1 | no change with or without drug | 0.22 | 0.84 |
| Sema3e | 1 | no change with or without drug | -0.22 | 0.34 |
| Sema3e | 2 | no change with or without drug | 0 | 0.17 |
| Hoxa2 (homeobox A2) | 1 | high cell count with doxorubicin only | 3.37 | -0.67 |
| Slc17a6 | 1 | no change with or without drug | -0.22 | -0.17 |
| Wdr59 (WD repeat domain 59) | 1 | no change with or without drug | -0.45 | 0.34 |
| Trim65 (tripartite motif-containing 65) | 1 | no change with or without drug | 0.34 | 1.01 |
| Mtln (mitoregulin) | 1 | no change with or without drug | 0 | -0.34 |

Laid out differently: 3 of the entries above.
{"gene symbol": "Cfhr1 (complement factor H-related 1)", "reagent": 1, "combined z-score class": "low cell count with doxorubicin only (active)", "viability z-score with doxorubicin": -2.25, "viability z-score without drug": -0.67}
{"gene symbol": "Lrrc3 (leucine rich repeat containing 3)", "reagent": 1, "combined z-score class": "no change with or without drug", "viability z-score with doxorubicin": -0.22, "viability z-score without drug": -1.01}
{"gene symbol": "Tmcc1 (transmembrane and coiled coil domains 1)", "reagent": 1, "combined z-score class": "no change with or without drug", "viability z-score with doxorubicin": 0, "viability z-score without drug": 1.18}
